What all share (assay): co-IP
One experiment deals with APC11-HA (UniProt Q9NYG5).
In another experiment the target is ANXA2-HA (UniProt P07355).
For experiment [1], the target named is FLAG-tagged UBE2C (UBE2C-FLAG) (UniProt O00762).

Protein sequences, listed by entry. Tags and fused reporters are not part of them.
UniProt Q9NYG5: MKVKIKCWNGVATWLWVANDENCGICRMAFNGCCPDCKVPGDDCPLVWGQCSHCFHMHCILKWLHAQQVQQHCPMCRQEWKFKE
UniProt P07355: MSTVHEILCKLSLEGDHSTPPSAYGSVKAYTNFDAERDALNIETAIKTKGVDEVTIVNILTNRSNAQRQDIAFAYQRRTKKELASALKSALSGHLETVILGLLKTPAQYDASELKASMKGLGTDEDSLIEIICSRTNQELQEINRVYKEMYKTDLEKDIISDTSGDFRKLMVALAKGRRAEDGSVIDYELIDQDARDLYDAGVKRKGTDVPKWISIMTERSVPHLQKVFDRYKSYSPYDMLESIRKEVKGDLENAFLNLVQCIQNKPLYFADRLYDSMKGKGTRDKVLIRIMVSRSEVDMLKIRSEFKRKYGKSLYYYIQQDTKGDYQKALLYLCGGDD
UniProt O00762: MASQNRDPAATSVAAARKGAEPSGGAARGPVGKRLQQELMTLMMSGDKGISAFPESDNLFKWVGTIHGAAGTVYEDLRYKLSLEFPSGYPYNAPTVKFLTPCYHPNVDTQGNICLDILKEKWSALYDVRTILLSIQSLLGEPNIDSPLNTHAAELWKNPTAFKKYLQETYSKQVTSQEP

These are yes or no findings as the source states them, for the method shown. In cells and extracts the contact can be indirect. Some results given as binding are weak or reduced against the parent protein; the word gives no strength.

Our source for the binding values is paper doi:10.1101/2025.07.06.663376.

“FLAG-tagged ANXA2 (ANXA2-FLAG) (from UniProt P07355 1-339)”: the binding result with APC11-HA was “binds”.

Consider “FLAG-tagged UBE2C (UBE2C-FLAG) (from UniProt O00762 1-179) (enzyme)”, for which the binding result with ANXA2-HA is “binds”.

Consider ANXA2-HA (from UniProt P07355 1-339), for which, in experiment [1], the binding entry is “binds”.
